Results deposited as PubChem BioAssay AID1259425 (University of Nebraska Medical Center, 2018)

Test: 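Find knockdowns that reproduce the gene expression pattern seen when KSR1 is lost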 (primary screen)
Cells: HCT116 human colon cancer cells
Knock-down reagent: siRNA pool against human genes, 50 nM siRNA
Measured: 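After 50 nM siRNA pool, branched-DNA assay measures six marker transcripts per well, minus blank, normalised to the geometric mean of two housekeeping transcripts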
Scale: BNIP3L mRNA: higher = more BNIP3L transcript after knockdown
Here is one part, drawn at random, of about 14,000 reagents. Further read-outs or replicates are left out here. Not stated in the record: the time to read-out.

{"gene knocked down": "IQCC (GeneID 55721)", "BNIP3L mRNA, set 1": 0.055}
{"gene knocked down": "FMO5 (GeneID 2330)", "BNIP3L mRNA, set 1": 0.211}
{"gene knocked down": "DSCR4 (GeneID 10281)", "BNIP3L mRNA, set 1": 0.121}
{"gene knocked down": "PIGQ (GeneID 9091)", "BNIP3L mRNA, set 1": 0.0664}
{"gene knocked down": "SQOR (GeneID 58472)", "BNIP3L mRNA, set 1": 0.0984}
{"gene knocked down": "SALL4 (GeneID 57167)", "BNIP3L mRNA, set 1": 0.18}
{"gene knocked down": "WBP4 (GeneID 11193)", "BNIP3L mRNA, set 1": 0.137}
{"gene knocked down": "POPDC3 (GeneID 64208)", "BNIP3L mRNA, set 1": 0.207}
{"gene knocked down": "SEC22B (GeneID 9554)", "BNIP3L mRNA, set 1": 0.193}
{"gene knocked down": "MRPS6 (GeneID 64968)", "BNIP3L mRNA, set 1": 0.272}
{"gene knocked down": "SLC6A15 (GeneID 55117)", "BNIP3L mRNA, set 1": 0.0514}
{"gene knocked down": "PAX7 (GeneID 5081)", "BNIP3L mRNA, set 1": 0.061}

Records above whose gene name begins with S or s (4):
{"gene knocked down": "SQOR (GeneID 58472)", "BNIP3L mRNA, set 1": 0.0984}
{"gene knocked down": "SALL4 (GeneID 57167)", "BNIP3L mRNA, set 1": 0.18}
{"gene knocked down": "SEC22B (GeneID 9554)", "BNIP3L mRNA, set 1": 0.193}
{"gene knocked down": "SLC6A15 (GeneID 55117)", "BNIP3L mRNA, set 1": 0.0514}

Further entries follow:
{"gene knocked down": "RPL36 (GeneID 25873)", "BNIP3L mRNA, set 1": 0.174}
{"gene knocked down": "ZNF77 (GeneID 58492)", "BNIP3L mRNA, set 1": 0.232}
{"gene knocked down": "TFF2 (GeneID 7032)", "BNIP3L mRNA, set 1": 0.257}
{"gene knocked down": "COG1 (GeneID 9382)", "BNIP3L mRNA, set 1": 0.187}
{"gene knocked down": "NPHS1 (GeneID 4868)", "BNIP3L mRNA, set 1": 0.0777}
{"gene knocked down": "SLC22A17 (GeneID 51310)", "BNIP3L mRNA, set 1": 0.0773}
{"gene knocked down": "FAM216A (GeneID 29902)", "BNIP3L mRNA, set 1": 0.104}
{"gene knocked down": "ASCL2 (GeneID 430)", "BNIP3L mRNA, set 1": 0.109}
{"gene knocked down": "MATN3 (GeneID 4148)", "BNIP3L mRNA, set 1": 0.0748}
{"gene knocked down": "STMN2 (GeneID 11075)", "BNIP3L mRNA, set 1": 0.156}
{"gene knocked down": "HAUS2 (GeneID 55142)", "BNIP3L mRNA, set 1": 0.0463}
{"gene knocked down": "SLC25A15 (GeneID 10166)", "BNIP3L mRNA, set 1": 0.321}
{"gene knocked down": "TRIM46 (GeneID 80128)", "BNIP3L mRNA, set 1": 0.117}
{"gene knocked down": "AEBP1 (GeneID 165)", "BNIP3L mRNA, set 1": 0.0834}
{"gene knocked down": "PAQR7 (GeneID 164091)", "BNIP3L mRNA, set 1": 0.0785}
{"gene knocked down": "BRPF3 (GeneID 27154)", "BNIP3L mRNA, set 1": 0.0857}
